In PMC11900812:
Results are given in words; binding and its absence hold for the method and conditions named. Binding seen in cells or lysates may run through a third protein. These calls come from enrichment with a bait or labelling near it, and not all partners need be listed.

By UniProt entry, the sequences of proteins in these tests, tags left out.
UniProt Q92560: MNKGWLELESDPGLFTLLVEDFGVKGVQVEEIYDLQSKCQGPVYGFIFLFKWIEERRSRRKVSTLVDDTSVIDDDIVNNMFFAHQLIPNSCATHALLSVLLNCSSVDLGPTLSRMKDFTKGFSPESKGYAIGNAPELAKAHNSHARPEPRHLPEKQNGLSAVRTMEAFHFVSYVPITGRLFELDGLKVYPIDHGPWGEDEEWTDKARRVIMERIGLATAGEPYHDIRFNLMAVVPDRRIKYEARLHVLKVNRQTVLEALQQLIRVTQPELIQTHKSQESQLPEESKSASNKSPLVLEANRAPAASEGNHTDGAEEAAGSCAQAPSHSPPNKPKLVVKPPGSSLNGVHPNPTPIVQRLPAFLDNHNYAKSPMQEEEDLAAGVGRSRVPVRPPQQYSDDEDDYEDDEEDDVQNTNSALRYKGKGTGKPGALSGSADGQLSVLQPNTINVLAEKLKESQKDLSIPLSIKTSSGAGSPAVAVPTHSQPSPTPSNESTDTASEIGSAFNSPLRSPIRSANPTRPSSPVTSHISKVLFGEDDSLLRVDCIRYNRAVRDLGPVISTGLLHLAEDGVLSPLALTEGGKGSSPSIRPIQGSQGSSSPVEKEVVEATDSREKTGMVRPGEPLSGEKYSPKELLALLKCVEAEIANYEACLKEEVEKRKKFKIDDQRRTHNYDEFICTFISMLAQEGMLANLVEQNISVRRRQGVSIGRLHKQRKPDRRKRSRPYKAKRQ
UniProt P51617: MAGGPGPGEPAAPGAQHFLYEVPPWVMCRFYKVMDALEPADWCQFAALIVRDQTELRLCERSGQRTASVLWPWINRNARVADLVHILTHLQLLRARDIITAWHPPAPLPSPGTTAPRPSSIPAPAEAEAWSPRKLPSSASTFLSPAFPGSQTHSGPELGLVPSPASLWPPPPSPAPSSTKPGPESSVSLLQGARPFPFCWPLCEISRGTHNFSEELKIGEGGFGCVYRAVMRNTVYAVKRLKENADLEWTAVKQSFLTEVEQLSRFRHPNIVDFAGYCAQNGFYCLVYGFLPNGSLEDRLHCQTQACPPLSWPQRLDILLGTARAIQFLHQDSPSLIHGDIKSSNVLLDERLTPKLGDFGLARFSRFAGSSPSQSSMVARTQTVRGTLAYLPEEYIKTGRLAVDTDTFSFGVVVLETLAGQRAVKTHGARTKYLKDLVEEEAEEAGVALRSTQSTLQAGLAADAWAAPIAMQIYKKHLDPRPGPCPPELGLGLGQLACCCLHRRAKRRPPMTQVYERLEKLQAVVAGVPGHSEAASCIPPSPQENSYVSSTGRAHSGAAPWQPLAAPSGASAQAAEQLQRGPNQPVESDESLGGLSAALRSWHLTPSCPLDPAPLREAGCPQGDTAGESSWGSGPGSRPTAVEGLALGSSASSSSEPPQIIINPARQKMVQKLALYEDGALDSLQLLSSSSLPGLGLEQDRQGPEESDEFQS

Biological target: HA tagged BAP1 (human) (UniProt Q92560)
Assay: affinity purification with mass spectrometry; HA tagged BAP1 overexpressed in 293T cells; co-immunoprecipitation and mass spectrometry of the interacting proteins

binding: binds
Substance: interleukin-1 receptor-associated kinase 1 (IRAK1), endogenous (from UniProt P51617 1-712)
